As a reminder, the EC50 is the concentration at which the effect is half-maximal.

This assay deals with MCF-7 cells. Kind of assay: MTT assay, MCF-7 growth inhibition. The assay is classed as cell-based. Particulars: Homo sapiens, MCF7, 24 h, read-out: EC50, MCF-7 cell viability. As to the method:
The cell lines MCF-7 and A431 were cultured in Dulbecco’s Modified Eagle’s Medium (DMEM, Gibco, USA), while HL-60, H1299, and A549 cells were maintained in RPMI-1640 medium (Gibco, USA). Both mediums were enriched with 10% fetal bovine serum and 1% penicillin/streptomycin. […] All cell cultures were incubated at 37°C in an atmosphere containing 5% CO2.
Cells in the exponential growth phase were seeded into 96-well plates and allowed to adhere overnight. Subsequently, they were treated in triplicate with various concentrations of the compounds (0, 1.56, 3.13, 6.25, 12.5, 25, 50, 100 µM), […]. After 24 h, 20 µL of Methyl-thiazolyldiphenyl-tetrazolium bromide (MTT, 5 mg/mL, Thermo Fisher Scientific) was added to each well and incubated for a minimum of 4 h. Following the incubation, the medium containing the compounds and MTT was removed from each well, and 200 µL of dimethyl sulfoxide (DMSO) was added. The plates were then shaken for 10 min at 37°C to dissolve the formazan crystals. The absorbance was measured using a microplate reader (BioTek Synergy 4) at a wavelength of 490 nm.
All experiments were repeated at least three times, and the data are presented as mean ± standard deviation (SD). The statistical analyses were performed using Origin. […] Difference between two groups were analyzed by Student’s t test (two-sided) and significance was set at p < 0.05. […]
On the technique in general: Formazan colour is commonly taken as a measure of viable cells.

Turning to `CN[C@@H]1C[C@H]2O[C@@](C)([C@@H]1OC)n1c3ccccc3c3c4c(c5c6ccccc6n2c5c31)C(=O)NC4` [Staurosporine, reference compound], the EC50 is 500 ± 200 nM.
